Measurements from US7070972.
No constants are given. Whether binding was seen depends on the method and setting. For some assays here: In cells and extracts the contact can be indirect. Some results given as binding are weak or reduced against the parent protein; the word gives no strength.

By UniProt entry, the sequences of proteins in these tests, tags left out. Where a name states a change or a piece, a line headed by the entry shows the natural chain unless it says otherwise.
UniProt P52333: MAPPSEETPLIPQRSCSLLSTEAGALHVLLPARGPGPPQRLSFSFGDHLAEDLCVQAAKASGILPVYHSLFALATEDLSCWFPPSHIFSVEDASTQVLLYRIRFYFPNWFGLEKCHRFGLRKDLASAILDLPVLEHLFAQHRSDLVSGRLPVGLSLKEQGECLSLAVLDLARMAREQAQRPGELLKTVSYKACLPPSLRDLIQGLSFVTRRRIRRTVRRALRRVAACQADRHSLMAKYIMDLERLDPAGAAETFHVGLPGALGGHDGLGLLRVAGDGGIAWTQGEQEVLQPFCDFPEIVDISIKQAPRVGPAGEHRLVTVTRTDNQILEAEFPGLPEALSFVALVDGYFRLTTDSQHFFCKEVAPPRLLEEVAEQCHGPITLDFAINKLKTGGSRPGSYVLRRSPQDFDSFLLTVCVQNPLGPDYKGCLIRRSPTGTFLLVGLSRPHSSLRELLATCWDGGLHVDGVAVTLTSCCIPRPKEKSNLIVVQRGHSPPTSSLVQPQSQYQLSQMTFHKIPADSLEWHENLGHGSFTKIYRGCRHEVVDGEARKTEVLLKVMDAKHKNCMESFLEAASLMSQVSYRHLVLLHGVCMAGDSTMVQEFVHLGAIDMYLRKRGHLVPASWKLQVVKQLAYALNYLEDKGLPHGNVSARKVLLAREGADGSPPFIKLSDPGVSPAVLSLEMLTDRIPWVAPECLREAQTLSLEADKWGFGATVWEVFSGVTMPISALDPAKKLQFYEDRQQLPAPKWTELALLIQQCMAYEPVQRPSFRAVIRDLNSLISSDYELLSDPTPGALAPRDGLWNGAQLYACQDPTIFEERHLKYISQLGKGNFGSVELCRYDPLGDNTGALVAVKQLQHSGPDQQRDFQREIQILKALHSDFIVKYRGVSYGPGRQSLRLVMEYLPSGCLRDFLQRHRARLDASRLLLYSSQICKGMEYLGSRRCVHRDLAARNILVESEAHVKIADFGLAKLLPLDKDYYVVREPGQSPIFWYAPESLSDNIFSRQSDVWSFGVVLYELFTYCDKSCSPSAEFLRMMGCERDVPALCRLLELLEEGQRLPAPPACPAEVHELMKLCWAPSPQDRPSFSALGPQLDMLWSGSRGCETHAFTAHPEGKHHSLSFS

Assays:
JAK-3 protein (human) [1] = biological target: JAK-3 protein (human) (UniProt P52333); experiment: peptide at 140 µM competing with γc for JAK-3; anti-γc immunoprecipitation, JAK-3 Western blot
JAK-3 protein (human) [2] = biological target: JAK-3 protein (human) (UniProt P52333); experiment: peptide competition of the γc-JAK-3 coprecipitation

binding (JAK-3 protein (human) [1]): binds
binding (JAK-3 protein (human) [2]): binds
Binder: ERTMPRIPTLKNLEDLVTE [synthetic peptide corresponding to the first 19 amino acids of the γc cytoplasmic tail (…)]
